Measurements published in paper PMC5958137, “Calreticulin and integrin alpha dissociation induces anti-inflammatory programming in animal models of inflammatory bowel disease” (Nature Communications, 2018).
No constants are given. Whether binding was seen depends on the method and setting. For some assays here: Binding seen in cells or lysates may run through a third protein. Some binding calls cover weakened binding; strength is not graded here. Values belong to the molecule of their own block, whether it stands above or below them.

Amino acid sequences for entries named in this document (tags omitted). Residues count along the entry.
UniProt P14211, residues 18-416: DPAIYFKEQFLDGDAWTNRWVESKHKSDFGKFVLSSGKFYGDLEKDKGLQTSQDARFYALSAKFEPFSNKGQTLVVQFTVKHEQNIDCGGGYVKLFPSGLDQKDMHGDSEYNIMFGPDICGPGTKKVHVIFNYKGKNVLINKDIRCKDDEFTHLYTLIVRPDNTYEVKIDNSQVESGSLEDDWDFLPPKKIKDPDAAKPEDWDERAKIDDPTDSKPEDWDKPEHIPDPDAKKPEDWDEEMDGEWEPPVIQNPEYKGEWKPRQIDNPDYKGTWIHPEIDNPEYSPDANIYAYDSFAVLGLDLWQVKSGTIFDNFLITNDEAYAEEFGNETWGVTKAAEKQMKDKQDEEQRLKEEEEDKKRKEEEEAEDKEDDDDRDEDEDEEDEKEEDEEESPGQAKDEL

Experiments:
[1] = target: T1, integrin α 4 (ITGA4), endogenous human (human (endogenous in Jurkat cells and in UC patient colon)) (UniProt P13612); assay: proximity ligation; in situ PLA (Duolink Brightfield) on a formalin-fixed colon section of a UC patient, anti-CRT FMC75 and anti-ITGA4 EPR1355Y; inflamed and non-inflamed sites
T1 sequence: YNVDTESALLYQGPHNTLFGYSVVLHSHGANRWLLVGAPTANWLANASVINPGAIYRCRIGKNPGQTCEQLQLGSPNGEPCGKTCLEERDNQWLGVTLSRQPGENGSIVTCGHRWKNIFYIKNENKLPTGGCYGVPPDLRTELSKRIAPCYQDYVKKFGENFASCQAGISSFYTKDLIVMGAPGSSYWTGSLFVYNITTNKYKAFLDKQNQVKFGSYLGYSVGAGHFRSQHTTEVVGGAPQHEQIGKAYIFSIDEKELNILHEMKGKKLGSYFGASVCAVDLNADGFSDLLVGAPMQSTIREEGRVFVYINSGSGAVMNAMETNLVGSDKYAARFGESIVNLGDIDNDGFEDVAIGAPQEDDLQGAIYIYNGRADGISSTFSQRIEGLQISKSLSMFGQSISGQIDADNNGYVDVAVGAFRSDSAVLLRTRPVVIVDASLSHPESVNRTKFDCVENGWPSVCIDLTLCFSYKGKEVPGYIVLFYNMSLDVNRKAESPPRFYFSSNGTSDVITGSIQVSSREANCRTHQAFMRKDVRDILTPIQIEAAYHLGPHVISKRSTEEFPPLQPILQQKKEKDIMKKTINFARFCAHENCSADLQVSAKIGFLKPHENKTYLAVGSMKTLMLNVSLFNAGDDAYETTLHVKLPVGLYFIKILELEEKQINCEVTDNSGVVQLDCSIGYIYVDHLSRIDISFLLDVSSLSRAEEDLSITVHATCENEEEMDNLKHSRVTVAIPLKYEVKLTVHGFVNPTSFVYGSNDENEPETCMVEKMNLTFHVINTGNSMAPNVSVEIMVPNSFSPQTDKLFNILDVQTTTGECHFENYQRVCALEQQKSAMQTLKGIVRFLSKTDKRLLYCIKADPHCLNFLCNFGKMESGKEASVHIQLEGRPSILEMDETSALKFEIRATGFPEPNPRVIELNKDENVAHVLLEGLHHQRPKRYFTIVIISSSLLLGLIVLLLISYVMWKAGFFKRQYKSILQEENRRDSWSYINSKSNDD

[2] = target: T1, integrin α 4 (ITGA4), endogenous human (human (endogenous in Jurkat cells and in UC patient colon)); assay: proximity ligation; in situ PLA (Duolink Red) on methanol-fixed Jurkat cells stimulated with PMA (100 ng/mL, 30 min), anti-CRT FMC75 and anti-ITGA4 EPR1355Y; also with 5 μM ER-464195-01 or ER-435813-01
[3] = target: T2, integrin α 4 (ITGA4), endogenous mouse (mouse (endogenous in colon)) (UniProt Q00651); assay: proximity ligation; in situ PLA on colon sections of DSS-treated mice, anti-CRT N-19 and anti-ITGA4 19676-1-AP
T2 sequence: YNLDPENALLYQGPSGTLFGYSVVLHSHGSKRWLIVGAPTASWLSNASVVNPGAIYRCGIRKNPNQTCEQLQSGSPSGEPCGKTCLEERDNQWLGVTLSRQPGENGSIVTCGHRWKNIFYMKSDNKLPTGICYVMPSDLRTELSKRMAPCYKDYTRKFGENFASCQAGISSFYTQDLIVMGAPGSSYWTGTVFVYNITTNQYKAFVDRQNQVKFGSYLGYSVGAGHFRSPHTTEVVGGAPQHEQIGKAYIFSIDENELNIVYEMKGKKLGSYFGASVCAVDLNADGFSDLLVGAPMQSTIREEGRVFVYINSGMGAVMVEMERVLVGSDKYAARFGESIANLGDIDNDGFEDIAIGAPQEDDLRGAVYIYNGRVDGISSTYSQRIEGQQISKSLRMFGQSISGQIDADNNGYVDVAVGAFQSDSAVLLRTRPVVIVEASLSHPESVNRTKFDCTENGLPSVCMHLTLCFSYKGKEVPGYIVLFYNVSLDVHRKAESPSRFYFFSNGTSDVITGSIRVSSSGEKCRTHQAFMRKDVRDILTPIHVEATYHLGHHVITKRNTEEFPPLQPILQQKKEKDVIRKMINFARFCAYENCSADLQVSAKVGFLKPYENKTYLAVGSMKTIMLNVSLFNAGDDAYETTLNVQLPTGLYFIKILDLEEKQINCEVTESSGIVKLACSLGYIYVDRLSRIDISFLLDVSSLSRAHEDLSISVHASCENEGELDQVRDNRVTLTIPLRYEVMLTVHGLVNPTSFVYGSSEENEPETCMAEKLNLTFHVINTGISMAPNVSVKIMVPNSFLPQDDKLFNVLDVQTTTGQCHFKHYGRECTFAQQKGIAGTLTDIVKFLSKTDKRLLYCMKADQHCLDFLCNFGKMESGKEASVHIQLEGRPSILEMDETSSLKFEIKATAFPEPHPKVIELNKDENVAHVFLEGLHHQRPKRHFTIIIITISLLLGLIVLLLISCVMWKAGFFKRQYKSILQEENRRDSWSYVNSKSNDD

[4] = target: T2, integrin α 4 (ITGA4), endogenous mouse (mouse (endogenous in colon)); assay: condition: only in mice treated with ER-464195-01 after DSS; proximity ligation; in situ PLA on colon sections of DSS-treated mice after therapeutic treatment with ER-464195-01, anti-CRT N-19 and anti-ITGA4 19676-1-AP
[5] = target: T3, uniformly 15N-labeled intracellular domain of ITGA4; assay: NMR titration; two-dimensional 15N-HSQC, 4 μM 15N-ITGA4 with 4 μM CRT and 800 μM ER-339093-13, 20 mM PB pH 5.5, 10% D2O, 303 K, 700 MHz; both purified
T3 sequence (chain, uniformly 15N-labeled): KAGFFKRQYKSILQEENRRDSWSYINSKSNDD

[6] = target: Human CRT expressed as a maltose binding protein fusion protein (human) (UniProt P27797); assay: ELISA; HTS cell-free binding assay: CRT coated on a 96-well plate, biotinylated α integrin peptide added in 10 mM phosphate buffer pH 7.4 with compound or vehicle, 1 h at room temperature, HRP-streptavidin, absorbance at 450 nm; both purified

Molecule: Calreticulin (CRT), endogenous human (from UniProt P27797 18-417)
binding [1]: binds
binding [2]: binds

Molecule: Human CRT protein, His-tag fusion protein (pET-19b) (from UniProt P27797 18-417)
binding [5]: no binding (condition: with 800 μM ER-339093-13)

Molecule: KVGFFKR (biotin on the N-terminus) [N-terminally biotinylated ITGA peptide KVGFFKR (αL)]
binding [6]: binds

Molecule: KAGFFKR (biotin on the N-terminus) [N-terminally biotinylated ITGA peptide KAGFFKR (α4)]
binding [6]: binds

Results, then the molecule that gave them:

binding [3]: binds
binding [4]: no binding
Molecule: Calreticulin (CRT), endogenous mouse (from UniProt P14211 18-416)

binding [6]: binds
Molecule: KLGFFKR (biotin on the N-terminus) [N-terminally biotinylated ITGA peptide KLGFFKR (αM/α2/α5)]
